Numbering of substitutions follows the chain as printed. No constants are given. Whether binding was seen depends on the method and setting. Some entries that bind do so weakly or less than the wild type.
B1: VK3/VH1A consensus λ-capped (human IL23R specific scFv) (scFv)
scFv: DIVLTQSPATLSLSPGERATLSCQASENIYSFLAWYQQKPGQAPRLLIYSASKLAAGVPARFSGSGSGTDFTLTISSLEPEDFAVYYCQQTNRYSNPDIYNVFGGGTKLTVLGGGGGSGGGGSGGGGSGGGGSQVQLVQSGAEVKKPGSSVKVSCKASGIDFNSNYYMCWVRQAPGQGLEWMGCIYVGSHVNTYYANWAKGRVTITADESTSTAYMELSSLRSEDTAVYYCATSGSSVLYFKFWGQGTLVTVSS
B2: VK3/VH1A consensus (uncapped; human IL23R specific scFv) (scFv)
scFv: B1 scFv with G105Q, L109V, T110E, V111I, L112K, G113R
B3: VK1/VH3 consensus λ-capped (human IL23R specific scFv) (scFv)
scFv: DIQMTQSPSSLSASVGDRVTITCQASENIYSFLAWYQQKPGKAPKLLIYSASKLAAGVPSRFSGSGSGTDFTLTISSLQPEDFATYYCQQTNRYSNPDIYNVFGGGTKLTVLGGGGGSGGGGSGGGGSGGGGSEVQLVESGGGLVQPGGSLRLSCAASGIDFNSNYYMCWVRQAPGKGLEWVSCIYVGSHVNTYYANWAKGRFTISRDNSKNTLYLQMNSLRAEDTAVYYCATSGSSVLYFKFWGQGTLVTVSS
B4: VK1/VH3 consensus (uncapped; human IL23R specific scFv) (scFv)
scFv: B3 scFv with G105Q, L109V, T110E, V111I, L112K, G113R
B5: VK3/VH5 consensus λ-capped (human IL23R specific scFv) (scFv)
scFv: DIVLTQSPATLSLSPGERATLSCQASENIYSFLAWYQQKPGQAPRLLIYSASKLAAGVPARFSGSGSGTDFTLTISSLEPEDFAVYYCQQTNRYSNPDIYNVFGGGTKLTVLGGGGGSGGGGSGGGGSGGGGSEVQLVQSGAEVKKPGESLKISCKGSGIDFNSNYYMCWVRQMPGKGLEWMGCIYVGSHVNTYYANWAKGQVTISADKSISTAYLQWSSLKASDTAMYYCATSGSSVLYFKFWGQGTLVTVSS
B6: VK3/VH5 consensus (uncapped; human IL23R specific scFv) (scFv)
scFv: B5 scFv with G105Q, L109V, T110E, V111I, L112K, G113R
B7: VK1/VH4 consensus λ-capped (human IL23R specific scFv) (scFv)
scFv: DIQMTQSPSSLSASVGDRVTITCQASENIYSFLAWYQQKPGKAPKLLIYSASKLAAGVPSRFSGSGSGTDFTLTISSLQPEDFATYYCQQTNRYSNPDIYNVFGGGTKLTVLGGGGGSGGGGSGGGGSGGGGSQVQLQESGPGLVKPSETLSLTCTVSGIDFNSNYYMCWIRQPPGKGLEWIGCIYVGSHVNTYYANWAKGRVTISVDTSKNQFSLKLSSVTAADTAVYYCATSGSSVLYFKFWGQGTLVTVSS
B8: VK1/VH4 consensus (uncapped; human IL23R specific scFv) (scFv)
scFv: B7 scFv with G105Q, L109V, T110E, V111I, L112K, G113R

The chains behind the UniProt entries cited, without tags or fusion partners. Residues count along the entry.
UniProt Q5VWK5, residues 24-355: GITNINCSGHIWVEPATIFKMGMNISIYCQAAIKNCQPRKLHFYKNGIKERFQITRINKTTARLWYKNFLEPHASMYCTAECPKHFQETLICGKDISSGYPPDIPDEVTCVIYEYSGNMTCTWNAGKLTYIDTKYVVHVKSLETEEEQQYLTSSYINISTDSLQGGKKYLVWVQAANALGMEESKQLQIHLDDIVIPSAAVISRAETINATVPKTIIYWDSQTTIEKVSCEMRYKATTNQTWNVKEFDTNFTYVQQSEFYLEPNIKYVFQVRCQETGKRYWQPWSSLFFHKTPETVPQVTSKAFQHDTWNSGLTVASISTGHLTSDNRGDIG

Each binder was assayed against human interleukin-23 receptor (IL23R) (human) (UniProt Q5VWK5) (assay: SPR, scFv on human IL23R; worded comparison of off-rates; capped or uncapped not said).

binding, binds:
B1
B2
B3
B4
B5
B6

What follows are binders tested against human interleukin-23 receptor (IL23R) (human) (UniProt Q5VWK5) (assay: SPR, scFv on human IL23R; worded comparison of on-rates; capped or uncapped not said).

binding, binds:
B7
B8

Reference: US20200255533A1
